PubChem BioAssay AID504744 | Drosophila RNAi Screening Center – 2011
The screen tested about 23,000 reagents; below is an unselected part of those with a known target gene and a result. In the full data, 98 (0.43%) got an active call. 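Only hit calls are given; the phospho-dAkt signals, z-scores and hit direction were not deposited.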 Names joined by + are all predicted targets of the reagent.

Aim: 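Uncover factors, including feedback loops, that control dAkt activation in fly cells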 (primary screen)
Cell system: Drosophila Kc167 cells
Reagent: long dsRNA against Drosophila genes, 250 ng dsRNA per well of a 384-well plate
Duration: 3 days of knock-down, then overnight serum-free starvation before stimulation
Treatment: bovine insulin at 387 nM for 10 minutes after 12 h without serum
Read-out: 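Per-well phospho-dAkt level from an in-cell fluorescent antibody stain, divided by a DNA-dye signal; log2 residuals turned into z-scores that take cell number into account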
Call rule: 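Hit in the insulin screen when the two-replicate mean z-score is more extreme than plus or minus 2.5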

| gene | amplicon | Call |
| --- | --- | --- |
| E2f2 | DRSC03320 | inactive |
| DIP-alpha | DRSC17891 | inactive |
| DIP-alpha | DRSC17892 | inactive |
| CG9555 | DRSC03264 | inactive |
| CG32845 | DRSC07867 | inactive |
| CG9130 + CG9133 | DRSC08624 | inactive |
| CG9130 + CG9133 | DRSC08625 | inactive |
| CG9130 + CG9133 | DRSC22010 | inactive |
| VhaM9.7-b | DRSC11841 | inactive |
| CG3556 | DRSC18309 | inactive |
| CG17580 | DRSC06683 | inactive |
| CG12012 | DRSC08220 | inactive |
| CG32095 | DRSC22615 | inactive |
| Nprl2 | DRSC20153 | inactive |
| Hsc70-2 | DRSC16710 | active |
| CG13044 | DRSC09925 | inactive |
| CR11386 + CR33222 | DRSC17781 | inactive |
| CG14259 | DRSC14754 | inactive |
| larp | DRSC14728 | inactive |
| larp | DRSC16984 | inactive |
| larp | DRSC21856 | inactive |
| CG13375 | DRSC18621 | inactive |
| Acp63F | DRSC08137 | inactive |
| polo | DRSC11384 | inactive |
| polo | DRSC22359 | inactive |
| Egfr | DRSC03871 | inactive |
| Egfr | DRSC04613 | inactive |
| HSPBAP1 | DRSC14567 | inactive |
| CG15431 | DRSC00446 | inactive |
| CG14695 | DRSC14918 | inactive |
| CG34286 | DRSC13372 | inactive |
| CG34286 | DRSC21790 | inactive |
| tipE | DRSC08738 | inactive |
| Pex3 | DRSC10731 | inactive |
| TotC | DRSC13449 | inactive |
| CG8500 | DRSC16434 | inactive |
| Hr83 | DRSC12521 | inactive |
| CG9839 | DRSC16574 | inactive |
| CG17652 | DRSC00511 | inactive |
| CG9458 | DRSC16495 | inactive |
| Ype | DRSC20301 | inactive |
| Sardh | DRSC06981 | inactive |
| Or67b | DRSC11241 | inactive |
| Cyp6g2 | DRSC07387 | inactive |
| CG31344 | DRSC16069 | inactive |
| CG11414 | DRSC04110 | inactive |
| CG7920 | DRSC16346 | inactive |
| CG7920 | DRSC21594 | inactive |
| CG15564 | DRSC15102 | inactive |
| Sry-delta | DRSC16869 | inactive |
| Graf | DRSC20131 | inactive |
| mRpS34 | DRSC09918 | inactive |
| phtm | DRSC20237 | inactive |
| CR15280 | DRSC01953 | inactive |
| Acat2 | DRSC08630 | inactive |
| Arfip | DRSC15179 | inactive |
| snRNA:U1:95Cc + snRNA:U1:95Cb | DRSC13641 | inactive |
| CG31639 | DRSC00910 | inactive |
| Septin4 | DRSC20205 | inactive |
| BaraC | DRSC03885 | inactive |
| CG15534 | DRSC15070 | inactive |
| Rac1 | DRSC08688 | inactive |
| stnB + stnA | DRSC20969 | inactive |
| stnB + stnA | DRSC21112 | inactive |
| stnB + stnA | DRSC21113 | inactive |
| Osi24 | DRSC12275 | inactive |
| nol | DRSC21425 | inactive |
| FucTC | DRSC20966 | inactive |
| CG12828 | DRSC06177 | inactive |
| DNAlig4 | DRSC19436 | inactive |
| CG12984 | DRSC11693 | inactive |
| Drs | DRSC08657 | inactive |
| teq | DRSC10298 | inactive |
| teq | DRSC11301 | inactive |
| teq | DRSC11302 | inactive |
| CG42266 | DRSC21577 | inactive |
| CG42266 | DRSC21957 | inactive |
| SP1029 | DRSC16848 | inactive |
| Bap111 | DRSC18419 | inactive |
| TORIP | DRSC10104 | inactive |
| CG11030 | DRSC02120 | inactive |
| Tif-IA | DRSC03717 | inactive |
| Tif-IA | DRSC03726 | inactive |
| Rdl | DRSC11264 | inactive |
| Lcp65Ag3 | DRSC10345 | inactive |
| Ser | DRSC16856 | inactive |
| Mpcp1 | DRSC07337 | inactive |
| CG7342 | DRSC16230 | inactive |
| CG31365 | DRSC15610 | inactive |
| CG13033 | DRSC09913 | inactive |
| ihog | DRSC03157 | inactive |
| alpha4GT1 | DRSC00488 | inactive |
| CG12320 | DRSC14498 | inactive |
| CG6380 | DRSC02950 | inactive |
| His2B:CG33894 + His2B:CG33872 + His2B:CG33902 + 20 more | DRSC21265 | inactive |
| Hdc | DRSC07439 | inactive |
| Wdr37 | DRSC14500 | inactive |
| CG32554 | DRSC22713 | inactive |
| CG10911 | DRSC06008 | inactive |
| CG9812 | DRSC04566 | inactive |
| CG13108 | DRSC02206 | inactive |
| CG34217 | DRSC05083 | inactive |
| CG12730 | DRSC17885 | inactive |
| CG40439 | DRSC22707 | inactive |
| elB | DRSC01379 | inactive |
| elB | DRSC03527 | inactive |
| MED4 | DRSC11014 | inactive |

In a second layout: results already given.
{"gene": "VhaM9.7-b", "amplicon": "DRSC11841", "Call": "inactive"}
{"gene": "CG3556", "amplicon": "DRSC18309", "Call": "inactive"}
{"gene": "CG17580", "amplicon": "DRSC06683", "Call": "inactive"}
{"gene": "CG12012", "amplicon": "DRSC08220", "Call": "inactive"}
{"gene": "CG32095", "amplicon": "DRSC22615", "Call": "inactive"}
{"gene": "Nprl2", "amplicon": "DRSC20153", "Call": "inactive"}
{"gene": "Hsc70-2", "amplicon": "DRSC16710", "Call": "active"}
{"gene": "CG13044", "amplicon": "DRSC09925", "Call": "inactive"}
{"gene": "CR11386 + CR33222", "amplicon": "DRSC17781", "Call": "inactive"}
{"gene": "CG14259", "amplicon": "DRSC14754", "Call": "inactive"}
{"gene": "larp", "amplicon": "DRSC14728", "Call": "inactive"}
{"gene": "larp", "amplicon": "DRSC16984", "Call": "inactive"}
{"gene": "larp", "amplicon": "DRSC21856", "Call": "inactive"}
